Data reported in the supplement of paper PMC10849652.
This is one part of the list.

The chains behind the UniProt entries cited, without tags or fusion partners. Where a name states a change or a piece, a line headed by the entry shows the natural chain unless it says otherwise.
UniProt Q9UNW1: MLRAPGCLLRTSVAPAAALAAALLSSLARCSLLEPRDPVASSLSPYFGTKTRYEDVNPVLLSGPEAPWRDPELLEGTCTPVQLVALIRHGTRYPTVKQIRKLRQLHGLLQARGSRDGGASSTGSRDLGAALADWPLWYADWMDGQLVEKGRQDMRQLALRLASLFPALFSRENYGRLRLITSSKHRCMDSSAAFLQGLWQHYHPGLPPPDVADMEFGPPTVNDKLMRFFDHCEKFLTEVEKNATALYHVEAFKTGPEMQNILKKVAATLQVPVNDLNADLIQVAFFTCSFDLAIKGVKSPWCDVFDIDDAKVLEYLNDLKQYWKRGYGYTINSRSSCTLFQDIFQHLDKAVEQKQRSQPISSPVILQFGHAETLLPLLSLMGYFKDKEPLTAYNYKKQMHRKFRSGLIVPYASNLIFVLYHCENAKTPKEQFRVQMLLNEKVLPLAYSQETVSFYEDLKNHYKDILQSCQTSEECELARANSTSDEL
UniProt Q8N4C8: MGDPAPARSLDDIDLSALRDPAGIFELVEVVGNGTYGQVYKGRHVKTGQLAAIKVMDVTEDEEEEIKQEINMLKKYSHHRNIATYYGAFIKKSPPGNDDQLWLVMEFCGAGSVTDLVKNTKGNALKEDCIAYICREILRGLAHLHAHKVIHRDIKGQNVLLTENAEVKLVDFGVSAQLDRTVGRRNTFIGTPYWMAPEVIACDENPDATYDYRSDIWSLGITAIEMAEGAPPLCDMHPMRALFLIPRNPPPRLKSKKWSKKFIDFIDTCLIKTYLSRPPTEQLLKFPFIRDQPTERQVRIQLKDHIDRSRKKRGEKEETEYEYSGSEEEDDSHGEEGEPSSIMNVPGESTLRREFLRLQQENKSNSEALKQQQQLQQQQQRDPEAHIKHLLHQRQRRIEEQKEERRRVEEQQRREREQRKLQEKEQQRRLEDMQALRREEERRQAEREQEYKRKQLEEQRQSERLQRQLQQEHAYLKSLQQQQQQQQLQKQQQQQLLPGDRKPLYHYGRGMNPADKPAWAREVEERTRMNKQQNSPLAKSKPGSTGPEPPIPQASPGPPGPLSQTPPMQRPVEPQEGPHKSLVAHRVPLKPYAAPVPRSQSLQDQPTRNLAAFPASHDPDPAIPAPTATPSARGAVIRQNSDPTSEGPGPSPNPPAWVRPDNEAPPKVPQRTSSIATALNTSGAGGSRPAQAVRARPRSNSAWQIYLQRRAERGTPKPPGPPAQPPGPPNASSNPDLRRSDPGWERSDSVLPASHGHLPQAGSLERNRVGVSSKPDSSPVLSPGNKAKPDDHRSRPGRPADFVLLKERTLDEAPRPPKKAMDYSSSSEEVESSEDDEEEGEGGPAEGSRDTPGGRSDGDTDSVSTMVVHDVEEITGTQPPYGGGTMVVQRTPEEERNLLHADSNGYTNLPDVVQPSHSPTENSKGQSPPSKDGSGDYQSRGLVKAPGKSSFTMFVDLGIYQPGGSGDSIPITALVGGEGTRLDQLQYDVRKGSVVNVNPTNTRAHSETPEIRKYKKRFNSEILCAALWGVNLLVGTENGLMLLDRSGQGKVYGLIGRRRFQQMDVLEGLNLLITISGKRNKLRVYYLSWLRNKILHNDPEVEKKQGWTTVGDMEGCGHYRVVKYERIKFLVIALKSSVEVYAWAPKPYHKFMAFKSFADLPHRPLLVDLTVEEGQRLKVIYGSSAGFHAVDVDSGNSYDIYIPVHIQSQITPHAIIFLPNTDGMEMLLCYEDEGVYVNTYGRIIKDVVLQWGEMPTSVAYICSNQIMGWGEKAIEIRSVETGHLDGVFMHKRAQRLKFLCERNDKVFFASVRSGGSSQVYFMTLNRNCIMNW
UniProt Q9NQG6: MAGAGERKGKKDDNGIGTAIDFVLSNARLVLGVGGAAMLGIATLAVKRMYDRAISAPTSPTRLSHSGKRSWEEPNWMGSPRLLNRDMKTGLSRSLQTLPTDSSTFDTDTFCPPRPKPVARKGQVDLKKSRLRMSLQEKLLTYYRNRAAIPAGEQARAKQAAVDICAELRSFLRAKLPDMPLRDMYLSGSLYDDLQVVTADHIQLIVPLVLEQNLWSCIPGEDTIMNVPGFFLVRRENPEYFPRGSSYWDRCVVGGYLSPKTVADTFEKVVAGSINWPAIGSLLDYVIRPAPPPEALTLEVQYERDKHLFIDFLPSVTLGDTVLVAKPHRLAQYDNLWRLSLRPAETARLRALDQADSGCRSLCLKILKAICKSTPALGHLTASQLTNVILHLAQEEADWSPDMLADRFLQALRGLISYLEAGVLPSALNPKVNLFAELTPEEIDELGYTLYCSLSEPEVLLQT
UniProt Q9BUB5: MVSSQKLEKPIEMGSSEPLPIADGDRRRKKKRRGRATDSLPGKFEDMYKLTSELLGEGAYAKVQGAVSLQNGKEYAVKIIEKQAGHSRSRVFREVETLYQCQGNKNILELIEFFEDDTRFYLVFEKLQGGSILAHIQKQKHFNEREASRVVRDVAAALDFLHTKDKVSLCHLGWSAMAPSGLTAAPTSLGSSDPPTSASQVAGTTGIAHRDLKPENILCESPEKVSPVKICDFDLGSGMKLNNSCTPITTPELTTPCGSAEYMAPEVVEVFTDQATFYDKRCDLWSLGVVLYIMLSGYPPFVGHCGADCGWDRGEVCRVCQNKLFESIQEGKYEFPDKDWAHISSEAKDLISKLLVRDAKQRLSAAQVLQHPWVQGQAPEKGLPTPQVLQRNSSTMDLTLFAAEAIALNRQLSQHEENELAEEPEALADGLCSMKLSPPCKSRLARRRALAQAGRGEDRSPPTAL
UniProt P49959: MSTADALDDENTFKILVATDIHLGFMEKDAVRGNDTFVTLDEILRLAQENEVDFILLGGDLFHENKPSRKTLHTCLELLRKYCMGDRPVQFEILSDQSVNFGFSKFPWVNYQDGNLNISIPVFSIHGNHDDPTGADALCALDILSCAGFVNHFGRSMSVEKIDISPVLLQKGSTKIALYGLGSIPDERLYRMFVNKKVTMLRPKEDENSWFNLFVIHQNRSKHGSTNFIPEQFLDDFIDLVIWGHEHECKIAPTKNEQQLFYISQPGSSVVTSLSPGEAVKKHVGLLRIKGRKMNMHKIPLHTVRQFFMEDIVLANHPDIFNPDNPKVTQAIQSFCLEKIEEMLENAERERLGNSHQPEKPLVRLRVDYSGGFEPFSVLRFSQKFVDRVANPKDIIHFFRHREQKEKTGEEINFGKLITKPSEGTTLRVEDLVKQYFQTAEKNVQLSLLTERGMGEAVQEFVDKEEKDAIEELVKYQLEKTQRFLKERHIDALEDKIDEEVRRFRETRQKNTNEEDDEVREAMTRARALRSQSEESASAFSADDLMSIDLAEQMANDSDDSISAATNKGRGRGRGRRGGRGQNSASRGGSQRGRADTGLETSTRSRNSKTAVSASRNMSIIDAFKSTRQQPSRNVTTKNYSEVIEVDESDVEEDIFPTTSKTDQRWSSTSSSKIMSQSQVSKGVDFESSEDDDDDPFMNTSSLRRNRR
UniProt P25325: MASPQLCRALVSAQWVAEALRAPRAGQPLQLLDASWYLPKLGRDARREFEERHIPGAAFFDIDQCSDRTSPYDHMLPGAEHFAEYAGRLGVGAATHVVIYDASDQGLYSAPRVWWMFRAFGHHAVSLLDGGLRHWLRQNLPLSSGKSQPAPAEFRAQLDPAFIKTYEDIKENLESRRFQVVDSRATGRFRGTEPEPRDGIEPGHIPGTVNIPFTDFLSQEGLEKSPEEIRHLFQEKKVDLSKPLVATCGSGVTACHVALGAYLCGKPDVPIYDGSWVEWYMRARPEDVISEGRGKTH
UniProt Q96T76: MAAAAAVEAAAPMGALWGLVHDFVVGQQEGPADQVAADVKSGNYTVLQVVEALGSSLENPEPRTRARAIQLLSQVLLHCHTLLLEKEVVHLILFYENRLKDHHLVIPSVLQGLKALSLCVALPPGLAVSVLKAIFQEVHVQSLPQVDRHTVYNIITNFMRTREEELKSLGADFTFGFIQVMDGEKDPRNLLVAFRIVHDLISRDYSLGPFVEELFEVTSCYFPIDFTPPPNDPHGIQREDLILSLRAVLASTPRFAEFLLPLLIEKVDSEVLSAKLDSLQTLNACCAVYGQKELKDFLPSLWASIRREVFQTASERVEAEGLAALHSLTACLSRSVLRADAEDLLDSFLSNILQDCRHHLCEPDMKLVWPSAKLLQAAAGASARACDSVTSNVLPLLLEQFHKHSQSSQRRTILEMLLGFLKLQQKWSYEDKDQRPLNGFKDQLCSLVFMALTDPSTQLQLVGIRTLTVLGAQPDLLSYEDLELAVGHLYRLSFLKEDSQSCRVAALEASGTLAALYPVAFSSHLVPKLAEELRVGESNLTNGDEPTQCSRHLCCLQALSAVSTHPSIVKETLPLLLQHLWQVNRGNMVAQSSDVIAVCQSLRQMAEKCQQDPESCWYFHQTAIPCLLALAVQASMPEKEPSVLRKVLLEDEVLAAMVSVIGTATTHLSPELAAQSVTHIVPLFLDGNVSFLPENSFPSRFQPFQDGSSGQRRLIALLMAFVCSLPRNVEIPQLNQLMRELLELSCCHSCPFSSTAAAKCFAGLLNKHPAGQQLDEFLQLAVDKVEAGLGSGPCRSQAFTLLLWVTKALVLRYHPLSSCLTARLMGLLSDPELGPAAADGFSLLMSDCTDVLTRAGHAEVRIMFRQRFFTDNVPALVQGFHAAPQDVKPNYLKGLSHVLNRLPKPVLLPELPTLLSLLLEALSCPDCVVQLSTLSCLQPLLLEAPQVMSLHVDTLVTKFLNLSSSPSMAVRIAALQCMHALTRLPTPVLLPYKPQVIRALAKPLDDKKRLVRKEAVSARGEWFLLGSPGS
UniProt Q13724: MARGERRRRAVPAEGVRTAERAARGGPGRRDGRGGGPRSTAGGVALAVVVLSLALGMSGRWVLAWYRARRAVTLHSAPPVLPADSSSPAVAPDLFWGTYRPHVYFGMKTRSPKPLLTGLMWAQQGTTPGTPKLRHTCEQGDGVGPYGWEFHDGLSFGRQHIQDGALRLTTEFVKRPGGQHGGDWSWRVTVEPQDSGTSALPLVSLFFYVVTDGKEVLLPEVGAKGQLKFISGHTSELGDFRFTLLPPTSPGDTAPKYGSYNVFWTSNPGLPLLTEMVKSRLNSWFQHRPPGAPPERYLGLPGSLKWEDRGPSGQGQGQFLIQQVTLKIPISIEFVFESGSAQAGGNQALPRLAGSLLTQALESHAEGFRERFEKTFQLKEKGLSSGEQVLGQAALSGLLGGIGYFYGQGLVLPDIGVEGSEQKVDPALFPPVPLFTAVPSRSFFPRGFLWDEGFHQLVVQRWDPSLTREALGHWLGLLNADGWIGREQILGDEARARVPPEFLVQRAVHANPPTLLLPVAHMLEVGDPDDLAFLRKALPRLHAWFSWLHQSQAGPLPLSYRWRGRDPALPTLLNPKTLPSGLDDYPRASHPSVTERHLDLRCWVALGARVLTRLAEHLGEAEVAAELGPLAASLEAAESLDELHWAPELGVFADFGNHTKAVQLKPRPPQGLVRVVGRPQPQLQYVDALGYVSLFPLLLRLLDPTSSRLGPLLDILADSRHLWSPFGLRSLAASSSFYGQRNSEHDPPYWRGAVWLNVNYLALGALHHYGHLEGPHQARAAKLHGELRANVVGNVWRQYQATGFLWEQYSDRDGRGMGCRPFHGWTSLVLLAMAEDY
UniProt P34949: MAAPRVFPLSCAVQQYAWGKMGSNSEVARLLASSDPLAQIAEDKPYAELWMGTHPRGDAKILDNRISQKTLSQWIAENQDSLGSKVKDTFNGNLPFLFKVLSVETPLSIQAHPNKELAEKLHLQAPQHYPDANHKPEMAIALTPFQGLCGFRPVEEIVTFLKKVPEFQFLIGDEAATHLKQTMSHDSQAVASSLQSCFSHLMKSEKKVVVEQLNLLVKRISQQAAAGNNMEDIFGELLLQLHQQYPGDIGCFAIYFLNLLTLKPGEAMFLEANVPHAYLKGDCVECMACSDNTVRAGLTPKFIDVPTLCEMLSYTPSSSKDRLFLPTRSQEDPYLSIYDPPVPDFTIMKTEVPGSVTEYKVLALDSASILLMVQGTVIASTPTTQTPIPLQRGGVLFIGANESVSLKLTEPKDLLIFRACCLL

What was measured:
Experiment in all cases: log2 fold change, soluble protein after heating vs DMSO (PISA); higher = thermal stabilisation; K562 cells, 10 uM, 30 min; active = over 0.2 and 3.5 SD of the protein, either way, in both replicates (recomputed)
bafetinib = compound: Cc1ccc(NC(=O)c2ccc(CN3CC[C@H](N(C)C)C3)c(C(F)(F)F)c2)cc1Nc1nccc(-c2cncnc2)n1 [bafetinib]
Summary of the method: (§1)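 K562 cells at 2×10^6 cells/mL were treated with 10 μM compound for 30 min. Aliquots were heated for 3 min across 48°C-58°C, pooled, and extracted in PBS with 0.5% NP-40 at 4°C; soluble protein was the supernatant after 21,000xg for 90 min. Soluble protein was quantified by TMTpro 16plex LC-MS/MS with channel sums equalised, and reported as log2 fold change in thermal stability against DMSO controls, with values from duplicates.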

[1] = compound: Cc1cccc(CC(=O)N2CCc3c2ccc(-c2cn(C)c4ncnc(N)c24)c3F)n1
Summary of the method: as §1

nilotinib = compound: Cc1cn(-c2cc(NC(=O)c3ccc(C)c(Nc4nccc(-c5cccnc5)n4)c3)cc(C(F)(F)F)c2)cn1 [nilotinib]
Summary of the method: as §1

[2] = compound: Cc1nc(Nc2n[nH]c3c2CN(C(=O)N[C@H](CN(C)C)c2ccccc2)C3(C)C)c2sccc2n1
Summary of the method: as §1

dasatinib = compound: Cc1nc(Nc2ncc(C(=O)Nc3c(C)cccc3Cl)s2)cc(N2CCN(CCO)CC2)n1 [dasatinib]
Summary of the method: as §1

[3] = compound: Cc1ncc(-c2ccnc(Nc3ccc(S(C)(=O)=O)cc3)n2)n1C(C)C
Summary of the method: as §1

[4] = compound: Cn1cc(-c2ccc3c(c2)CCN3C(=O)Cc2cccc(C(F)(F)F)c2)c2c(N)ncnc21
Summary of the method: as §1

[5] = compound: Cn1cc(-c2ccc3nnc(C(F)(F)c4ccc5ncccc5c4)n3n2)cn1
Summary of the method: as §1

tipifarnib = compound: Cn1cncc1[C@@](N)(c1ccc(Cl)cc1)c1ccc2c(c1)c(-c1cccc(Cl)c1)cc(=O)n2C [tipifarnib]
Summary of the method: as §1

mubritinib = compound: FC(F)(F)c1ccc(/C=C/c2nc(COc3ccc(CCCCn4ccnn4)cc3)co2)cc1 [mubritinib]
Summary of the method: as §1

[6] = compound: NC(=O)Nc1cc(-c2cccc(F)c2)sc1C(=O)N[C@H]1CCCNC1
Summary of the method: as §1

[7] = compound: NC(=O)c1cnc(N[C@@H]2CCCC[C@@H]2N)nc1Nc1cccc(-n2nccn2)c1
Summary of the method: as §1

[8] = compound: NC1(c2ccc(-c3nc4ccn5c(=O)[nH]nc5c4cc3-c3ccccc3)cc2)CCC1
Summary of the method: as §1

[9] = compound: NCC(=O)Nc1ccc(-n2nc(C(F)(F)F)cc2-c2ccc3c(ccc4ccccc43)c2)cc1
Summary of the method: as §1

entinostat = compound: Nc1ccccc1NC(=O)c1ccc(CNC(=O)OCc2cccnc2)cc1 [entinostat]
Summary of the method: as §1

vorinostat = compound: O=C(CCCCCCC(=O)Nc1ccccc1)NO [vorinostat]
Summary of the method: as §1

citarinostat = compound: O=C(CCCCCCNC(=O)c1cnc(N(c2ccccc2)c2ccccc2Cl)nc1)NO [citarinostat]
Summary of the method: as §1

silmitasertib = compound: O=C(O)c1ccc2c(c1)nc(Nc1cccc(Cl)c1)c1ccncc12 [silmitasertib]
Summary of the method: as §1

[10] = compound: O=C1NC(=O)C(c2cnc3ccccn23)=C1c1cn2c3c(cc(F)cc13)CN(C(=O)N1CCCCC1)CC2
Summary of the method: as §1

[11] = compound: c1cc(OCCN2CCCCC2)cc(-c2n[nH]c3ccc(-c4nnc[nH]4)cc23)c1
Summary of the method: as §1

Measured: log2 fold change

MINPP1 (UniProt Q9UNW1)
inactive: bafetinib 0.018 | [1] 0.049 | nilotinib 0.039 | [2] -0.006 | dasatinib 0.053 | [3] 0.013 | [4] -0.044 | [5] 0.01 | tipifarnib -0.065 | mubritinib 0.012 | [6] -0.001 | [7] -0.021 | [8] -0.031 | [9] 0.063 | entinostat 0.002 | vorinostat -0.013 | citarinostat 0.092 | silmitasertib 0.032 | [10] -0.004 | [11] -0.003

MRPL14 (UniProt Q6P1L8)
inactive: bafetinib 0.091 | [1] 0.073 | nilotinib -0.046 | [2] 0.033 | dasatinib -0.024 | [3] -0.035 | [4] 0.038 | [5] -0.043 | tipifarnib 0.001 | mubritinib 0.097 | [6] -0.028 | [7] 0.069 | [8] -0.066 | [9] 0.026 | entinostat -0.113 | vorinostat 0.016 | citarinostat -0.01 | silmitasertib -0.039 | [10] 0.088 | [11] -0.083

MINK1 (UniProt Q8N4C8)
active: dasatinib -0.222
inactive: bafetinib -0.031 | [1] -0.04 | nilotinib -0.025 | [2] -0.062 | [3] -0.09 | [4] 0.02 | [5] -0.042 | tipifarnib 0.018 | mubritinib 0.014 | [6] 0.006 | [7] -0.032 | [8] -0.097 | [9] 0.005 | entinostat 0.045 | vorinostat 0.057 | citarinostat 0.077 | silmitasertib -0.041 | [10] 0.015 | [11] -0.119

MIEF1 (UniProt Q9NQG6)
inactive: bafetinib -0.133 | [1] 0.006 | nilotinib 0.022 | [2] -0.04 | dasatinib -0.028 | [3] 0.145 | [4] 0.09 | [5] 0.064 | tipifarnib -0.039 | mubritinib -0.029 | [6] -0.001 | [7] -0.14 | [8] -0.215 | [9] -0.034 | entinostat 0.056 | vorinostat 0.019 | citarinostat 0.073 | silmitasertib 0.006 | [10] 0.031 | [11] -0.01

MKNK1 (UniProt Q9BUB5)
inactive: bafetinib 0.088 | [1] 0.057 | nilotinib 0 | [2] 0.059 | dasatinib -0.115 | [3] -0.04 | [4] 0.117 | [5] -0.183 | tipifarnib -0.101 | mubritinib 0.03 | [6] 0.226 | [7] -0.157 | [8] -0.158 | [9] -0.059 | entinostat -0.026 | vorinostat -0.025 | citarinostat 0.025 | silmitasertib 0.012 | [10] 0.019 | [11] -0.042

MRPL17 (UniProt Q9NRX2)
inactive: bafetinib 0.135 | [1] 0.094 | nilotinib -0.106 | [2] 0.104 | dasatinib -0.088 | [3] -0.095 | [4] -0.114 | [5] -0.049 | tipifarnib 0.162 | mubritinib -0.024 | [6] 0.038 | [7] 0.032 | [8] 0.01 | [9] 0.033 | entinostat 0.03 | vorinostat 0.035 | citarinostat -0.024 | silmitasertib -0.018 | [10] -0.015 | [11] -0.102

MRPL21 (UniProt Q7Z2W9)
inactive: bafetinib 0.199 | [1] 0.052 | nilotinib -0.116 | [2] 0.186 | dasatinib -0.001 | [3] -0.018 | [4] -0.089 | [5] -0.042 | tipifarnib 0.17 | mubritinib 0.021 | [6] 0.029 | [7] -0.043 | [8] -0.007 | [9] 0.078 | entinostat 0.013 | vorinostat 0.062 | citarinostat 0 | silmitasertib -0.031 | [10] 0.046 | [11] -0.035

MRE11 isoform 3 (UniProt P49959)
inactive: bafetinib -0.038 | [1] -0.002 | nilotinib 0.059 | [2] -0.086 | dasatinib 0.006 | [3] -0.018 | [4] -0.006 | [5] 0.038 | tipifarnib 0.048 | mubritinib 0.091 | [6] -0.049 | [7] 0.03 | [8] 0.017 | [9] -0.001 | entinostat -0.007 | vorinostat -0.169 | citarinostat 0.011 | silmitasertib -0.011 | [10] -0.032 | [11] -0.03

MPST isoform 2 (UniProt P25325)
inactive: bafetinib 0.02 | [1] -0.021 | nilotinib -0.017 | [2] 0.071 | dasatinib 0.01 | [3] 0.025 | [4] -0.016 | [5] 0.002 | tipifarnib 0.004 | mubritinib -0.106 | [6] -0.016 | [7] -0.066 | [8] 0.041 | [9] -0.024 | entinostat -0.011 | vorinostat -0.057 | citarinostat 0.035 | silmitasertib 0.014 | [10] 0.144 | [11] -0.009

MRPL41 (UniProt Q8IXM3)
inactive: bafetinib 0.227 | [1] 0.117 | nilotinib -0.044 | [2] 0.101 | dasatinib 0.004 | [3] -0.042 | [4] -0.214 | [5] -0.013 | tipifarnib 0.092 | mubritinib 0.043 | [6] -0.046 | [7] 0.037 | [8] -0.001 | [9] 0.075 | entinostat -0.011 | vorinostat 0.062 | citarinostat -0.013 | silmitasertib -0.09 | [10] 0.029 | [11] -0.119

MMS19 isoform 8 (UniProt Q96T76)
inactive: bafetinib -0.014 | [1] 0.092 | nilotinib -0.038 | [2] -0.027 | dasatinib -0.205 | [3] -0.002 | [4] -0.021 | [5] 0.02 | tipifarnib -0.055 | mubritinib -0.019 | [6] 0.01 | [7] -0.026 | [8] -0.157 | [9] -0.072 | entinostat 0.066 | vorinostat 0.017 | citarinostat 0.097 | silmitasertib 0.085 | [10] -0.003 | [11] -0.007

MRPL4 (UniProt Q9BYD3)
inactive: bafetinib 0.129 | [1] 0.053 | nilotinib -0.001 | [2] 0.061 | dasatinib 0.071 | [3] 0.036 | [4] -0.164 | [5] -0.078 | tipifarnib 0.047 | mubritinib 0.062 | [6] 0.032 | [7] 0.028 | [8] -0.01 | [9] 0.056 | entinostat 0.114 | vorinostat 0.041 | citarinostat -0.066 | silmitasertib 0.006 | [10] 0.087 | [11] -0.11

MRPL16 (UniProt Q9NX20)
inactive: bafetinib 0.228 | [1] 0.166 | nilotinib -0.078 | [2] 0.173 | dasatinib 0.076 | [3] -0.031 | [4] -0.343 | [5] -0.014 | tipifarnib 0.165 | mubritinib 0.027 | [6] 0.009 | [7] 0.282 | [8] 0.147 | [9] 0.11 | entinostat 0.021 | vorinostat -0.057 | citarinostat -0.051 | silmitasertib -0.063 | [10] -0.009 | [11] 0.286

MOGS (UniProt Q13724)
inactive: bafetinib -0.023 | [1] 0.001 | nilotinib -0.045 | [2] 0.036 | dasatinib 0.001 | [3] 0.007 | [4] -0.026 | [5] 0.006 | tipifarnib 0.004 | mubritinib -0.034 | [6] -0.042 | [7] -0.023 | [8] -0.036 | [9] -0.037 | entinostat -0.003 | vorinostat 0.008 | citarinostat 0.011 | silmitasertib 0.026 | [10] 0.064 | [11] -0.052

MPI (UniProt P34949)
inactive: bafetinib -0.087 | [1] 0.055 | nilotinib -0.195 | [2] -0.074 | dasatinib -0.092 | [3] -0.011 | [4] 0.02 | [5] 0.007 | tipifarnib 0.045 | mubritinib 0.018 | [6] -0.018 | [7] 0.056 | [8] -0.014 | [9] -0.043 | entinostat 0.03 | vorinostat 0.059 | citarinostat 0.084 | silmitasertib 0.009 | [10] -0.077 | [11] -0.096

Two entries picked at random from those above, as already listed:
MOGS (UniProt Q13724)
inactive: bafetinib -0.023 | [1] 0.001 | nilotinib -0.045 | [2] 0.036 | dasatinib 0.001 | [3] 0.007 | [4] -0.026 | [5] 0.006 | tipifarnib 0.004 | mubritinib -0.034 | [6] -0.042 | [7] -0.023 | [8] -0.036 | [9] -0.037 | entinostat -0.003 | vorinostat 0.008 | citarinostat 0.011 | silmitasertib 0.026 | [10] 0.064 | [11] -0.052

MRPL4 (UniProt Q9BYD3)
inactive: bafetinib 0.129 | [1] 0.053 | nilotinib -0.001 | [2] 0.061 | dasatinib 0.071 | [3] 0.036 | [4] -0.164 | [5] -0.078 | tipifarnib 0.047 | mubritinib 0.062 | [6] 0.032 | [7] 0.028 | [8] -0.01 | [9] 0.056 | entinostat 0.114 | vorinostat 0.041 | citarinostat -0.066 | silmitasertib 0.006 | [10] 0.087 | [11] -0.11

Next part.

MRPL35 (UniProt Q9NZE8)
inactive: bafetinib 0.167 | [1] 0.083 | nilotinib -0.081 | [2] 0.103 | dasatinib 0.034 | [3] -0.063 | [4] -0.21 | [5] 0.126 | tipifarnib 0.116 | mubritinib 0.055 | [6] -0.035 | [7] 0.093 | [8] -0.038 | [9] 0.179 | entinostat 0.021 | vorinostat -0.011 | citarinostat 0.052 | silmitasertib 0.084 | [10] 0.015 | [11] -0.101
